Test results from paper PMC9478404.
No constants are given. Whether binding was seen depends on the method and setting.

Chains of the proteins cited; added tags and fusions are not shown. Lines headed by an entry give the natural chain unless they say otherwise; changes in a name come on top. A line that says so, or that is headed by a name, gives the form on record, which may keep a tag or linker. Residues count along the entry.
B-Myb DNA-binding domain (B-Myb^34–183) (P10244, residues 34-183): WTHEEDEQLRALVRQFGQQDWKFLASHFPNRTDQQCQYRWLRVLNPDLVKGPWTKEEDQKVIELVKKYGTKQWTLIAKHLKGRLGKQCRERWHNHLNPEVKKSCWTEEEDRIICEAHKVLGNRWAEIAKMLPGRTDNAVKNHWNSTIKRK
B-Myb^440–510 (N-terminal half of the NRD) (P10244, residues 440-510): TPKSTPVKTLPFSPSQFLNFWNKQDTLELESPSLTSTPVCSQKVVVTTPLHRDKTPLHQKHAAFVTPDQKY
B-Myb NRD^510–600 TTT mutant (T515A, T518A, T520A), phosphorylated by Cdk2-CycA (P10244-1, form named): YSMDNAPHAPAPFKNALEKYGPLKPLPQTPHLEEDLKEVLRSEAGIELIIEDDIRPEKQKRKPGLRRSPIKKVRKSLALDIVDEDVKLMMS
B-Myb NRD^510–600 LLL mutant (L541, L545, L549 to alanine) (P10244-1, form named): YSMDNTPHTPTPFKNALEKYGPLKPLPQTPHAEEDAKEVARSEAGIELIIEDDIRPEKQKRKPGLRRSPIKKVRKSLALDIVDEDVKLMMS
B-Myb NRD^510–600 LEED mutant (L541, E542, E543, D544 to alanine) (P10244-1, form named): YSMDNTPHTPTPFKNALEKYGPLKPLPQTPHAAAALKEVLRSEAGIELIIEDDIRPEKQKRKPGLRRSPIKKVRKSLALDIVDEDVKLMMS

How the values were obtained:
Experiment in all cases: ITC; DBD (500 μM) titrated into NRD (50 μM) at 19 °C; 150 mM NaCl, 20 mM Tris, 1 mM BME (pH 8); MicroCal VP-ITC; mean of three technical replicates; both purified
[1] = biological target: B-Myb NRD^510–600 TTT mutant (T515A, T518A, T520A) (human) (UniProt P10244)
[2] = biological target: B-Myb^440–510 (N-terminal half of the NRD) (human) (UniProt P10244)
[3] = biological target: B-Myb NRD^510–600 LLL mutant (L541, L545, L549 to alanine) (human) (UniProt P10244)
[4] = biological target: B-Myb NRD^510–600 TTT mutant (T515A, T518A, T520A), phosphorylated by Cdk2-CycA (human) (UniProt P10244)
[5] = biological target: B-Myb NRD^510–600 LEED mutant (L541, E542, E543, D544 to alanine) (human) (UniProt P10244)

## B-Myb DNA-binding domain (B-Myb^34–183) (from UniProt P10244-1 34-183) (domain or fragment)
[1]
  binding: no binding (tested: DBD 500 μM titrated into NRD 50 μM)
[2]
  binding: no binding (tested: DBD 500 μM titrated into NRD 50 μM)
[3]
  binding: no binding (tested: DBD 500 μM titrated into NRD 50 μM)
[4]
  binding: no binding (tested: DBD 500 μM titrated into NRD 50 μM)
[5]
  binding: no binding (tested: DBD 500 μM titrated into NRD 50 μM)
